Measurements taken from paper PMC7368857.
Results are given in words; binding and its absence hold for the method and conditions named. In cells and extracts the contact can be indirect. Some results given as binding are weak or reduced against the parent protein; the word gives no strength.

By UniProt entry, the sequences of proteins in these tests, tags left out.
UniProt P08047: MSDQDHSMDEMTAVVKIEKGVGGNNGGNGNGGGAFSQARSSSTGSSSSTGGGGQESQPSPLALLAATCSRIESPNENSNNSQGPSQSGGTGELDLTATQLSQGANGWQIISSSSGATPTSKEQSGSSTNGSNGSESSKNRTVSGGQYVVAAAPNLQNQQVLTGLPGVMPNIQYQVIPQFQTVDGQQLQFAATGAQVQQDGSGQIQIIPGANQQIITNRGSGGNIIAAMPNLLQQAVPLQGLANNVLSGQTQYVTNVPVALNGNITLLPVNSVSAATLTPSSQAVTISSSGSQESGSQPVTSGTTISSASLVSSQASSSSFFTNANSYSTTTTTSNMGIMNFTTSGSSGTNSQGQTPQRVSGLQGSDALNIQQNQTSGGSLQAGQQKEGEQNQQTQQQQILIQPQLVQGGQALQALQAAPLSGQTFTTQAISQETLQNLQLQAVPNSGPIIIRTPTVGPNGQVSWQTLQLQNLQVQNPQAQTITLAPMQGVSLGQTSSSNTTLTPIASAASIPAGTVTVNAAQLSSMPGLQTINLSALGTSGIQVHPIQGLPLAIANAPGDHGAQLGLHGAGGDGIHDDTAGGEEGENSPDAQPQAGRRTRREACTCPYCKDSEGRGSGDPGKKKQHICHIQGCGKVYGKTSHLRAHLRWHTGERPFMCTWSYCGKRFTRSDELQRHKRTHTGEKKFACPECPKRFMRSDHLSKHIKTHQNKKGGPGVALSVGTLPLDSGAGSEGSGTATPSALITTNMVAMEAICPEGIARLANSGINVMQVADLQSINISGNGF
UniProt P51532: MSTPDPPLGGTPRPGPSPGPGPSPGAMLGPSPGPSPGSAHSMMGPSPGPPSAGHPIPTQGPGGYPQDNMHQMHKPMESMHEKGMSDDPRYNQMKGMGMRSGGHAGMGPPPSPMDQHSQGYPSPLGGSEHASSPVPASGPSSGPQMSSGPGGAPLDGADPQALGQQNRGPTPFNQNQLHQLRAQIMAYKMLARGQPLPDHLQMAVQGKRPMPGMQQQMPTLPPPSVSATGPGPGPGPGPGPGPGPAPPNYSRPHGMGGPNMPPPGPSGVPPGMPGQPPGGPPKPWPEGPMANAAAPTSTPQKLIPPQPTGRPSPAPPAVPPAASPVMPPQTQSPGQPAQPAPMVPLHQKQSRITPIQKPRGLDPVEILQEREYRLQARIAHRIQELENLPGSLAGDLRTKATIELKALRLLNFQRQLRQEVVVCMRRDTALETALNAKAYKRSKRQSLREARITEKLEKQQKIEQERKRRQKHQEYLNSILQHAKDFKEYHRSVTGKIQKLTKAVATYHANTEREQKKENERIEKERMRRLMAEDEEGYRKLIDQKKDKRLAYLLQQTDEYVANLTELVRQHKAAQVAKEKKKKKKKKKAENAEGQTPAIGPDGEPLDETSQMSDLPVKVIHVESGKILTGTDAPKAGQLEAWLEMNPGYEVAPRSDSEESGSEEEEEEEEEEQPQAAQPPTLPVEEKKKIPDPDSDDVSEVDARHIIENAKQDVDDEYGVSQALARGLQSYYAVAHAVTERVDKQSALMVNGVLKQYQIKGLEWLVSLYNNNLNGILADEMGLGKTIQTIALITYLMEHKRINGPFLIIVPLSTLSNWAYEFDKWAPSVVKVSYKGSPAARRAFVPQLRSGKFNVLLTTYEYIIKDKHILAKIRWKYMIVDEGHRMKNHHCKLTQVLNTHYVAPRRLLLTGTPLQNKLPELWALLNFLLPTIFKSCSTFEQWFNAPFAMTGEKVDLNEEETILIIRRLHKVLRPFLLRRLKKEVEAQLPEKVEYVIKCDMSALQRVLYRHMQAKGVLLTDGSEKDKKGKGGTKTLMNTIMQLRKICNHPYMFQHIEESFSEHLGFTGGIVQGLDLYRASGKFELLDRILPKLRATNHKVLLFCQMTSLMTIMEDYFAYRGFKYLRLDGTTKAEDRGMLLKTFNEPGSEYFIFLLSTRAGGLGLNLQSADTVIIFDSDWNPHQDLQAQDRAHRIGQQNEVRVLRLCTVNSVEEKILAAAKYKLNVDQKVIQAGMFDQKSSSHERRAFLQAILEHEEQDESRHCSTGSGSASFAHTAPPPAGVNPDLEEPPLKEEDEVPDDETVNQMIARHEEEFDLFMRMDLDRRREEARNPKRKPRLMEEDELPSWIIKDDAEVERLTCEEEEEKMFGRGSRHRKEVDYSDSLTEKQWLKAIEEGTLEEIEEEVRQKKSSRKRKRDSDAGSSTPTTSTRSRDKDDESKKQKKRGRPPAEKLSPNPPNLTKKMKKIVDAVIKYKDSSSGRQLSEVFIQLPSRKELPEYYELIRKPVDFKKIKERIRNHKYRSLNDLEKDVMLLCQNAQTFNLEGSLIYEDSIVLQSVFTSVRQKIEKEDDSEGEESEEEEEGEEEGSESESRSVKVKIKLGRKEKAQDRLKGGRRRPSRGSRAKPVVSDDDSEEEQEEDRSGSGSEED

Tests used:
FLAG-tagged Sp1 = FLAG-tagged Sp1 (UniProt P08047); assay: co-IP; nuclear lysates from HEK293 cells, treated with DNase I at 37 °C for 30 min before immunoprecipitation; specific antibodies with Protein A/G-plus agarose, or FLAG-conjugated M2 beads eluted with 3X FLAG peptide; Western blot
[1] = molecular target: endogenous Sp1 (human (endogenous in EAhy926)) (UniProt P08047); assay: co-IP; nuclear lysates from EAhy926 cells (endogenous proteins), treated with DNase I at 37 °C for 30 min before immunoprecipitation; specific antibodies or pre-immune IgG with Protein A/G-plus agarose; Western blot

Substance: Myc-tagged BRG1 (Brahma-related gene 1) (from UniProt P51532 1-1647)
- binding (FLAG-tagged Sp1): binds

Substance: endogenous BRG1 (from UniProt P51532 1-1647)
- binding [1]: binds
